Experimental data taken from patent publication US6573364.
No constants are given. Whether binding was seen depends on the method and setting. Some results given as binding are weak or reduced against the parent protein; the word gives no strength. Sequences can lack the tags named with a protein.

The chains behind the UniProt entries cited, without tags or fusion partners. Where a name states a change or a piece, a line headed by the entry shows the natural chain unless it says otherwise.
UniProt P04386: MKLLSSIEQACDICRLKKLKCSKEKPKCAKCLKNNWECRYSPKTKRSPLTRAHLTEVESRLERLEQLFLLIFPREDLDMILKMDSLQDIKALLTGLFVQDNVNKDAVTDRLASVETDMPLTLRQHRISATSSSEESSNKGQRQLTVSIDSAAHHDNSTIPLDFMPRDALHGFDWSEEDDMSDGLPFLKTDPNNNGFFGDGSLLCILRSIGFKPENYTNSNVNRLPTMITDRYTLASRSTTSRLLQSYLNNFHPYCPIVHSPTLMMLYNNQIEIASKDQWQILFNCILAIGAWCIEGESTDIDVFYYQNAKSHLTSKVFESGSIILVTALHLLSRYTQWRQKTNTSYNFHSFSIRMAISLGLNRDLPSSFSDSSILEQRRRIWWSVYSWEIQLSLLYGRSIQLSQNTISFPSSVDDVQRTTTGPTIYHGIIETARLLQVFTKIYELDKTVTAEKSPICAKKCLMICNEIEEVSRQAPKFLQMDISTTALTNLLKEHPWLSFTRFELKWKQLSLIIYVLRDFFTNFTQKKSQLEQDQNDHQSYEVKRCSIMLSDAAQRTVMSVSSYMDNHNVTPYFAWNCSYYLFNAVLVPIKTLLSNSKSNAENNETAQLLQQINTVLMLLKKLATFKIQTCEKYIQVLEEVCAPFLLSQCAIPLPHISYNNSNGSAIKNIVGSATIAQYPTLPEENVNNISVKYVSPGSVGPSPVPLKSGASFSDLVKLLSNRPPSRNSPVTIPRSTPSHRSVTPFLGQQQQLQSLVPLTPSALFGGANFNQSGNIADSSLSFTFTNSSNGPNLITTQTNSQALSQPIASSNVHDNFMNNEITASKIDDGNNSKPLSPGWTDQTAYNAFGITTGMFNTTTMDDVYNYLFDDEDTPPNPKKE

Legend:
[1] = target: T1, HPS protein fragment 210-1292 fused to the Gal4 activator domain (reverse screen) (yeast; human) (UniProt Q92902); assay: yeast two-hybrid, reverse screen; listed under the sequences interacting with the HPS protein domain 210-1292
T1 sequence: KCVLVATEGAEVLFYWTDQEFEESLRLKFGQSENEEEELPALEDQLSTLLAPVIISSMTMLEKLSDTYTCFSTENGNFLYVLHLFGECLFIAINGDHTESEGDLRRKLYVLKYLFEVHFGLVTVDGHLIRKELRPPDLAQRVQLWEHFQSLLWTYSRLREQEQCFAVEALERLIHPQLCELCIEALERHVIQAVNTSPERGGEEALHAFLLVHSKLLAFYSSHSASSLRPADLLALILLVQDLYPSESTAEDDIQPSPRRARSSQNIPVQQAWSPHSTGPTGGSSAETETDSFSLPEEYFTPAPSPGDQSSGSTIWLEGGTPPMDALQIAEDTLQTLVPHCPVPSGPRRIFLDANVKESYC

[2] = target: T1, HPS protein fragment 210-1292 fused to the Gal4 activator domain (reverse screen) (yeast; human); assay: yeast two-hybrid mating, recapitulation of the interactions identified in the reverse screens
[3] = target: T1, HPS protein fragment 210-1292 fused to the Gal4 activator domain (reverse screen) (yeast; human); assay: yeast two-hybrid, reverse screen; listed in Table I as an interaction with HPS 210-1292, 2 isolates
[4] = target: T1, HPS protein fragment 210-1292 fused to the Gal4 activator domain (reverse screen) (yeast; human); assay: yeast two-hybrid, reverse screen; listed in Table I as an interaction with HPS 210-1292, 1 isolate

- binding [1]: binds
- binding [2]: binds
- binding [3]: binds
- binding [4]: binds
Substance: DiGeorge Syndrome (DGS)-I protein, prey inserts starting at nucleotides 16 and 27 of GenBank L77566, fused to the Gal4 DNA binding domain (from UniProt P04386 1-147; Q96DF8 1-476)
